Assay results published in PMC12638379, “An innovative approach to development of new pyrazolylquinolin-2-one hybrids as dual EGFR and BRAF^V600E inhibitors” (Molecular Diversity, 2025).
Where two headings read alike, the source gives them in different places.

Test system: leukemia (MOLT-4) cell line
Experiment: MTT antiproliferative assay, MOLT-4
Format: cell-based, human
Protocol: […]. […] See Appendix B.
After 24 h of culture incubation and supernatants discarded.

## CN[C@@H]1C[C@H]2O[C@@](C)([C@@H]1OC)n1c3ccccc3c3c4c(c5c6ccccc6n2c5c31)C(=O)NC4 [Staurosporine, reference compound]
Homo sapiens, MOLT-4, read-out: Antiproliferative activity IC50 ± SEM, MOLT-4, MTT
  IC50: 4.94 ± 0.19 µM
read-out: Antiproliferative activity IC50 ± SEM, MOLT-4, MTT
  IC50: 5.86 ± 0.23 µM
